# The list shows a part of the results.
# Tests used:
# Assay in all cases: glycan array binding signal (z-score within array); higher = stronger binding
# Conditions in all cases: glycan notation: IUPAC condensed, linker removed
# [1] = molecular target: Man(a1-2)Man(a1-3)[Man(a1-2)Man(a1-6)]Man(a1-6)[Man(a1-2)Man(a1-2)Man(a1-3)]Man(b1-4)GlcNAc(b1-4)GlcNAc
# How it was run: (§1)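 The binding signal is a Z-score computed within each array and averaged over linkers. Arrays of the same protein sequence at different concentrations or buffers were also averaged together. Data originate from 3228 arrays in the Consortium for Functional Glycomics database, kept only where the protein sequence was available.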
# [2] = molecular target: Man(a1-2)Man(a1-3)[Man(a1-6)]Man(a1-6)[Man(a1-2)Man(a1-3)]Man(b1-4)GlcNAc(b1-4)GlcNAc
# How it was run: as §1
# [3] = molecular target: Man(a1-2)Man(a1-6)[Man(a1-3)]Man(a1-6)[Man(a1-2)Man(a1-2)Man(a1-3)]Man
# How it was run: as §1
# [4] = molecular target: Man(a1-2)Man(a1-6)[Man(a1-3)]Man(a1-6)[Man(a1-2)Man(a1-2)Man(a1-3)]Man(b1-4)GlcNAc(b1-4)GlcNAc
# How it was run: as §1
# [5] = molecular target: Man(a1-3)[Man(a1-6)]Man
# How it was run: as §1
# [6] = molecular target: Man(a1-3)[Man(a1-6)]Man(a1-6)[Man(a1-2)Man(a1-3)]Man(b1-4)GlcNAc(b1-4)GlcNAc
# How it was run: as §1
# [7] = molecular target: Man(a1-3)[Man(a1-6)]Man(a1-6)[Man(a1-3)]Man
# How it was run: as §1
# [8] = molecular target: Man(a1-3)[Man(a1-6)]Man(a1-6)[Man(a1-3)]Man(b1-4)GlcNAc(b1-4)GlcNAc
# How it was run: as §1
# [9] = molecular target: Man(a1-3)[Man(a1-6)]Man(b1-4)GlcNAc(b1-4)GlcNAc
# How it was run: as §1
# [10] = molecular target: Man(a1-3)[Man(a1-6)]Man(b1-4)GlcNAc(b1-4)[Fuc(a1-6)]GlcNAc
# How it was run: as §1
# [11] = molecular target: Man(a1-6)Man
# How it was run: as §1
# [12] = molecular target: Man(b1-4)GlcNAc
# How it was run: as §1
# [13] = molecular target: Neu5Ac(a2-3)Gal
# How it was run: as §1
# [14] = molecular target: Neu5Ac(a2-3)Gal(b1-3)GalNAc
# How it was run: as §1
# [15] = molecular target: Neu5Ac(a2-3)Gal(b1-3)GalNAc(b1-3)Gal(a1-4)Gal(b1-4)Glc
# How it was run: as §1
# [16] = molecular target: Neu5Ac(a2-3)Gal(b1-3)GalNAc(b1-4)[Neu5Ac(a2-3)]Gal(b1-4)Glc
# How it was run: as §1
# [17] = molecular target: Neu5Ac(a2-3)Gal(b1-3)GalNAc(b1-4)[Neu5Ac(a2-8)Neu5Ac(a2-3)]Gal(b1-4)Glc
# How it was run: as §1
# [18] = molecular target: Neu5Ac(a2-3)Gal(b1-3)GalNAc6S
# How it was run: as §1
# [19] = molecular target: Neu5Ac(a2-3)Gal(b1-3)GlcNAc
# How it was run: as §1
# [20] = molecular target: Neu5Ac(a2-3)Gal(b1-3)GlcNAc(b1-2)Man(a1-3)[GlcNAc(b1-4)][Neu5Ac(a2-3)Gal(b1-3)GlcNAc(b1-2)Man(a1-6)]Man(b1-4)GlcNAc(b1-4)GlcNAc
# How it was run: as §1
# [21] = molecular target: Neu5Ac(a2-3)Gal(b1-3)GlcNAc(b1-3)Gal(b1-3)GlcNAc
# How it was run: as §1
# [22] = molecular target: Neu5Ac(a2-3)Gal(b1-3)GlcNAc(b1-3)Gal(b1-4)GlcNAc
# How it was run: as §1
# [23] = molecular target: Neu5Ac(a2-3)Gal(b1-3)GlcNAc(b1-3)GalNAc
# How it was run: as §1
# [24] = molecular target: Neu5Ac(a2-3)Gal(b1-3)GlcNAc(b1-6)GalNAc
# How it was run: as §1
# [25] = molecular target: Neu5Ac(a2-3)Gal(b1-3)GlcNAc6S
# How it was run: as §1
# [26] = molecular target: Neu5Ac(a2-3)Gal(b1-3)[Fuc(a1-4)]GlcNAc
# How it was run: as §1
# [27] = molecular target: Neu5Ac(a2-3)Gal(b1-3)[Fuc(a1-4)]GlcNAc(b1-3)Gal(b1-3)[Fuc(a1-4)]GlcNAc
# How it was run: as §1
# [28] = molecular target: Neu5Ac(a2-3)Gal(b1-3)[Fuc(a1-4)]GlcNAc(b1-3)Gal(b1-4)[Fuc(a1-3)]GlcNAc
# How it was run: as §1
# [29] = molecular target: Neu5Ac(a2-3)Gal(b1-3)[Neu5Ac(a2-3)Gal(b1-4)]GlcNAc
# How it was run: as §1
# [30] = molecular target: Neu5Ac(a2-3)Gal(b1-3)[Neu5Ac(a2-6)]GalNAc
# How it was run: as §1
# [31] = molecular target: Neu5Ac(a2-3)Gal(b1-3)[Neu5Ac(a2-6)]GlcNAc(b1-3)[Fuc(a1-3)[Gal(b1-4)]GlcNAc(b1-6)]Gal(b1-4)Glc
# How it was run: as §1
# [32] = molecular target: Neu5Ac(a2-3)Gal(b1-4)Glc
# How it was run: as §1
# [33] = molecular target: Neu5Ac(a2-3)Gal(b1-4)GlcNAc
# How it was run: as §1
# [34] = molecular target: Neu5Ac(a2-3)Gal(b1-4)GlcNAc(b1-2)Man
# How it was run: as §1
# [35] = molecular target: Neu5Ac(a2-3)Gal(b1-4)GlcNAc(b1-2)Man(a1-3)[GlcNAc(b1-2)Man(b1-4)GlcNAc(b1-2)Man(a1-6)]Man(b1-4)GlcNAc(b1-4)GlcNAc
# How it was run: as §1
# [36] = molecular target: Neu5Ac(a2-3)Gal(b1-4)GlcNAc(b1-2)Man(a1-3)[Neu5Ac(a2-3)Gal(b1-4)GlcNAc(b1-2)Man(a1-6)]Man(b1-4)GlcNAc(b1-4)[Fuc(a1-6)]GlcNAc
# How it was run: as §1
# [37] = molecular target: Neu5Ac(a2-3)Gal(b1-4)GlcNAc(b1-2)Man(a1-3)[Neu5Ac(a2-6)Gal(b1-4)GlcNAc(b1-2)Man(a1-6)]Man(b1-4)GlcNAc(b1-4)GlcNAc
# How it was run: as §1
# [38] = molecular target: Neu5Ac(a2-3)Gal(b1-4)GlcNAc(b1-2)[Neu5Ac(a2-3)Gal(b1-4)GlcNAc(b1-6)]Man(a1-6)[Neu5Ac(a2-3)Gal(b1-4)GlcNAc(b1-2)Man(a1-3)]Man(b1-4)GlcNAc(b1-4)GlcNAc
# How it was run: as §1
# [39] = molecular target: Neu5Ac(a2-3)Gal(b1-4)GlcNAc(b1-3)Gal
# How it was run: as §1
# [40] = molecular target: Neu5Ac(a2-3)Gal(b1-4)GlcNAc(b1-3)Gal(b1-3)GlcNAc
# How it was run: as §1
# [41] = molecular target: Neu5Ac(a2-3)Gal(b1-4)GlcNAc(b1-3)Gal(b1-4)GlcNAc
# How it was run: as §1
# [42] = molecular target: Neu5Ac(a2-3)Gal(b1-4)GlcNAc(b1-3)Gal(b1-4)GlcNAc(b1-3)Gal(b1-4)GlcNAc
# How it was run: as §1
# [43] = molecular target: Neu5Ac(a2-3)Gal(b1-4)GlcNAc(b1-3)Gal(b1-4)[Fuc(a1-3)]GlcNAc
# How it was run: as §1
# [44] = molecular target: Neu5Ac(a2-3)Gal(b1-4)GlcNAc(b1-3)GalNAc
# How it was run: as §1
# [45] = molecular target: Neu5Ac(a2-3)Gal(b1-4)GlcNAc(b1-3)[Neu5Ac(a2-3)Gal(b1-4)GlcNAc(b1-6)]GalNAc
# How it was run: as §1
binder,measurement,setting,value
Intelectin-1a (Mus musculus) (protein) AEWSHPQFEKAEENLDTNRWGNSFFSSLPRSCKEIKQEHTKAQDGLYFLRTKNGVIYQTFCDMTTAGGGWTLVASVHENNMRGKCTVGDRWSSQQGNRADYPEGDGNWANYNTFGSAEAATSDDYKNPGYFDIQAENLGIWHVPNKSPLHNWRKSSLLRYRTFTGFLQHLGHNLFGLYKKYPVKYGEGKCWTDNGPALPVVYDFGDARKTASYYSPSGQREFTAGYVQFRVFNNERAASALCAGVRVTGCNTEHHCIGGGGFFPEGNPVQCGDFASFDWDGYGTHNGYSSSRKITEAAVLLFYR,glycan array binding signal (z-score),[1],0.197
same,glycan array binding signal (z-score),[2],-0.451
same,glycan array binding signal (z-score),[3],0.17
same,glycan array binding signal (z-score),[4],-1.13
same,glycan array binding signal (z-score),[5],0.005
same,glycan array binding signal (z-score),[6],-0.401
same,glycan array binding signal (z-score),[7],2.38
same,glycan array binding signal (z-score),[8],-1.14
same,glycan array binding signal (z-score),[9],-1.59
same,glycan array binding signal (z-score),[10],-0.693
same,glycan array binding signal (z-score),[11],-0.923
same,glycan array binding signal (z-score),[12],-1.15
same,glycan array binding signal (z-score),[13],0.241
same,glycan array binding signal (z-score),[14],1.73
same,glycan array binding signal (z-score),[15],-0.18
same,glycan array binding signal (z-score),[16],-0.317
same,glycan array binding signal (z-score),[17],-0.991
same,glycan array binding signal (z-score),[18],-0.429
same,glycan array binding signal (z-score),[19],0.572
same,glycan array binding signal (z-score),[20],-0.723
same,glycan array binding signal (z-score),[21],0.289
same,glycan array binding signal (z-score),[22],-0.948
same,glycan array binding signal (z-score),[23],-0.237
same,glycan array binding signal (z-score),[24],0.808
same,glycan array binding signal (z-score),[25],-0.221
same,glycan array binding signal (z-score),[26],0.303
same,glycan array binding signal (z-score),[27],-0.408
same,glycan array binding signal (z-score),[28],-0.748
same,glycan array binding signal (z-score),[29],-0.162
same,glycan array binding signal (z-score),[30],-0.222
same,glycan array binding signal (z-score),[31],-0.837
same,glycan array binding signal (z-score),[32],-0.067
same,glycan array binding signal (z-score),[33],-1.12
same,glycan array binding signal (z-score),[34],1.73
same,glycan array binding signal (z-score),[35],-0.002
same,glycan array binding signal (z-score),[36],1.34
same,glycan array binding signal (z-score),[37],1.58
same,glycan array binding signal (z-score),[38],0.884
same,glycan array binding signal (z-score),[39],0.251
same,glycan array binding signal (z-score),[40],-0.402
same,glycan array binding signal (z-score),[41],0.306
same,glycan array binding signal (z-score),[42],-0.49
same,glycan array binding signal (z-score),[43],-0.8
same,glycan array binding signal (z-score),[44],-0.154
same,glycan array binding signal (z-score),[45],0.295

# Source: the supplement of paper PMC8728848
